{
  "source": "patent US20090023697A1",
  "about": "“ANALGESIA METHOD” (Vernalis (R&D) Limited, priority 2003, published 2009)",
  "tested_on": "male Wistar rats",
  "assay": "Tail flick latency (TFL) response to ip morphine: effect of sustained release neurosteroid on development of morphine tolerance",
  "data": [
    {"compound": "CC(=O)[C@H]1CC[C@H]2[C@@H]3CC[C@H]4C[C@H](O)CC[C@]4(C)[C@H]3C(=O)C[C@]12C", "note": "[alphaxalone]", "values": [
      {"measurement": "sedation observed during the course of the tolerance experiment", "setting": "sc emulsions with morphine emulsion, alphadolone 250 mg/kg/day, alphaxalone 80 mg/kg/day", "result": "heavily sedated"},
      {"measurement": "post treatment TFL values (6.4 mg/kg ip morphine, day 3) compared with vehicle treated controls", "setting": "two days sc morphine emulsion plus sc emulsion of alphadolone 250 mg/kg/day or alphaxalone 80 mg/kg/day, Students t test", "result": "did not differ from those in vehicle treated controls"}
    ]}
  ]
}
